The nature of this test: IkB Signaling. The conditions noted are these: ABC-DLBCL IkBa-CBG/CBR dual luciferase ratio (green luciferase fused to IkBa over red control in OCI-Ly3 lymphoma cells), 4 h. The gist of the method: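 Luminescence ratio of IκBα-fused green versus native red beetle luciferase in OCI-Ly3 cells, 4 h post-doxycycline with compound; red signal alone, scaled from basal (0%) to zero light (-100%), flagged nonspecific or cytotoxic effects.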
[1] abbreviates: measured here: control luc red channel unless noted.
[2] abbreviates: measured here: IkB-luc green channel.
[3] abbreviates: measured here: control luc red channel.

The list shows a part of the results. These are further read-outs of the screen, such as a control signal, another cell line or another target. No call is given for them. The list favours compounds with an active or inconclusive main result. Potencies come from curve fits of mixed quality, noted in brackets.

For `Cc1cc(C)c2c(=O)nc(SCc3ccccc3C)n(C3CC3)c2n1`, under setting [1], the AC50 was 12.6 µM [falling, partial curve].

For the compound `COCCn1c(=NC(=O)c2ccc3c(c2)OCCO3)sc2cc(C(=O)OC)ccc21`, the concentration at half-maximal activity (AC50) under setting [1] is 3.98 µM [falling, full curve].

On to `COc1ccc(C(=O)OC2=C(C(=O)c3ccccc3)N(C)S(=O)(=O)c3ccccc32)cc1OC`, for which the AC50 is, setting by setting: under setting [2], 3.16 µM [rising, full curve, poor fit]; under setting [3], 3.16 µM [rising, partial curve].

In the case of `Cc1cc(C)nc(-n2nc(C)c3c2NC(=O)CC3c2cccc(O)c2)n1` (configuration not stated), the AC50 under setting [1] was 0.0501 µM [falling, full curve].

For the compound `COC(=O)CSC1=NS(=O)(=O)c2ccccc21`, the AC50 under setting [1] was 7.94 µM [rising, partial curve] [measured here: IkB-luc green channel].

As to `CCOC(=O)c1ccc2c(c1)N(Cc1ccc(F)cc1Cl)C(=O)c1ccccc1S2(=O)=O`, the AC50 under setting [1] was 2.51 µM [rising, single point].

Regarding `COc1cc(OC)c(NC(=O)Nc2cccc(OCc3cc(=O)n4ccccc4n3)c2)cc1Cl`, the AC50 under setting [1] is 0.251 µM [falling, full curve].

On to `CCn1c(C)c(C)c2cc(C(=O)NCc3ccc(F)cc3)ccc21`, for which the AC50 under setting [1] was 39.8 µM [falling, single point].

Regarding `O=C(C1CCCN(S(=O)(=O)c2ccc(Br)s2)C1)N1CCN(c2ccccc2F)CC1` (configuration not stated), under setting [1], the AC50 is 15.8 µM [falling, partial curve].

In the case of `Fc1ccc(Nc2ncnc3onc(-c4ccc(Cl)cc4)c23)cc1Cl`, under setting [1], the AC50 was 39.8 µM [falling, single point].

For the compound `COc1ccc(C)cc1NC(=O)NC(C)c1c(-n2cccc2)sc(C)c1C` (configuration not stated), the AC50 under setting [1] is 0.126 µM [falling, full curve, poor fit].

On to `CCOC(=O)c1c(C)[nH]c(CCC(=O)NC(C)c2ccccc2)c1C` (configuration not stated), for which the AC50 under setting [1] is 0.1 µM [falling, full curve, poor fit].

With `CCN(CC)CCCNc1sc(S(=O)(=O)c2ccccc2)nc1S(=O)(=O)c1ccc(Cl)cc1`, the AC50 under setting [1] was 25.1 µM [falling, single point].

With `COC(=O)C(NC(=O)CCc1c(C)nc2c(-c3ccccc3)c(C)nn2c1C)C(C)C` (configuration not stated), the AC50 under setting [1] is 15.8 µM [falling, partial curve].

Consider `CCCC(=O)Nc1nnc(S(=O)(=O)N2CCCCCC2)s1`, for which the AC50 under setting [1] is 3.16 µM [rising, single point].

Consider `CC(C)Cc1ccc(S(=O)(=O)N2CCN(Cc3noc(CCC(=O)N4CCCCC4)n3)CC2)cc1`, for which the AC50 under setting [1] is 20 µM [falling, single point].

Turning to `COc1ccc(C2C(C(=O)Nc3ccccc3)=C(C)Nc3nc(SCC(=O)c4ccc(C)cc4)nn32)cc1` (configuration not stated), the half-maximal activity concentration (AC50) under setting [1] is 6.31 µM [rising, single point].

Consider `Cc1nc2cc(-c3cccc(F)c3)nn2c(C)c1CCC(=O)N1CCN(c2ccccn2)CC1`, for which, under setting [1], the AC50 is 0.794 µM [falling, partial curve].

As for `CC1=C(c2ccc(F)cc2)S(=O)(=O)N=C1N1CCC(C(=O)NCCc2ccccc2C)CC1`, under setting [1], the half-maximal activity concentration (AC50) is 100 nM [rising, full curve, poor fit] [measured here: IkB-luc green channel].

Take `CCC(C(=O)NC1CCCC1)N(Cc1ccco1)C(=O)Cn1nnc(-c2ccc(C)cc2)n1` (configuration not stated): under setting [1], the half-maximal activity concentration (AC50) is 158 nM [rising, full curve, poor fit] [measured here: IkB-luc green channel].

Consider `Cc1ccc(CNC(=O)c2ccc(CSCc3cccc(C)c3)o2)cc1`, for which the AC50 under setting [1] was 25.1 µM [falling, single point].

Take `Cc1ccc(CCNS(=O)(=O)c2c(C)nc3sc(C)c(C)n3c2=O)cc1`: the AC50 under setting [1] is 39.8 µM [falling, single point].

On to `Cc1nc2ccn(Cc3cccs3)c(=O)c2cc1C(=O)N1CCN(c2ccccc2F)CC1`, for which the AC50 under setting [1] is 25.1 µM [falling, partial curve].

`O=C1C(=O)N(C2CCN(C(=O)c3ccccc3Cl)CC2)CCN1Cc1ccc(F)cc1`: the half-maximal activity concentration (AC50) under setting [1] was 2.51 µM [falling, full curve, poor fit].

`CC1CCN(S(=O)(=O)c2ccc3c(c2)N(CC(=O)NCCc2ccccc2)C(=O)CO3)CC1`: the AC50 under setting [1] is 39.8 µM [falling, single point].

Take `COc1cccc(NC(=O)c2ccc3c(c2)CCN3S(C)(=O)=O)c1`: the AC50 under setting [1] is 20 µM [falling, partial curve].

Consider `CCC(=O)N1CCc2cc(Br)cc(S(=O)(=O)N3CCN(c4ccccc4OC)CC3)c21`, for which, under setting [1], the AC50 was 0.0316 µM [falling, full curve, poor fit].

For the compound `Cc1ccc(CNC(=O)c2nc(SCc3ccccc3C)ncc2Cl)cc1`, the AC50 under setting [1] is 10 µM [falling, partial curve, poor fit].

As to `COCCNc1oc(/C=C/c2ccc(F)cc2)nc1C#N`, the AC50 under setting [1] is 0.251 µM [rising, partial curve].

As for `COc1ccc(Nc2ncnc3c2cnn3-c2ccc(C)cc2)cc1Cl`, the AC50 under setting [1] was 3.98 µM [falling, full curve].

Consider `CCC(=O)N1CCc2cc(Br)cc(S(=O)(=O)CCC(=O)NCc3cccc(OC)c3)c21`, for which the AC50 under setting [1] was 6.31 µM [falling, partial curve].

As for `CC1C(=O)N2CCCc3cc(S(=O)(=O)N4CCC(C(N)=O)CC4)cc1c32` (configuration not stated), the AC50 was 3.98 µM [rising, single point] under setting [2] and 6.31 µM [rising, single point] under setting [3].

As to `COc1ccccc1Nc1nn2c(=O)c3ccc(C(=O)NCCC4=CCCCC4)cc3nc2s1`, under setting [1], the AC50 was 31.6 µM [falling, partial curve].

Take `Cc1onc(-c2ccccc2)c1C(=O)OCC(=O)c1ccccc1`: the AC50 under setting [1] is 31.6 µM [falling, single point].

On to `COc1cccc(CNC(=O)c2cnc(N3CCCCC3)c3ccccc23)c1`, for which the AC50 under setting [1] is 39.8 µM [falling, single point].

As to `COc1ccc(-c2onc(C)c2C)cc1S(=O)(=O)NCC1CCN(Cc2cc(C)ccc2C)CC1`, under setting [1], the half-maximal activity concentration (AC50) was 15.8 µM [falling, partial curve].

`COC(=O)c1ccccc1NC(=O)c1ccc2nc(CCc3ccccc3)oc2c1`: the AC50 under setting [1] is 7.94 µM [rising, partial curve, poor fit].

For the compound `O=C(CSCc1cnn(-c2ccccc2)c1-n1cccc1)NCc1cccs1`, the half-maximal activity concentration (AC50) under setting [1] is 15.8 µM [falling, partial curve].

In the case of `COc1cccc(-c2noc(COc3ccccc3Cl)n2)c1`, the AC50 under setting [1] was 6.31 µM [rising, single point].

In the case of `c1ccc(C(Cc2nc(-c3ccccn3)no2)c2ccccc2)cc1`, under setting [1], the AC50 is 2 µM [falling, full curve].

For `Cc1ccc(-n2c(=O)c3c(cnn3C)n(CC(=O)Nc3ccccc3C)c2=O)cc1`, the AC50 under setting [1] was 1.26 µM [falling, partial curve].

With `COc1ccc2nc(C)cc(Nc3ccc(Cl)c(Cl)c3)c2c1`, the AC50 under setting [1] is 15.8 µM [falling, partial curve].

In the case of `O=C(Cn1c(=O)oc2cc(S(=O)(=O)N3CCCCC3)ccc21)NCc1ccc(Cl)cc1`, the AC50 under setting [1] is 15.8 µM [falling, partial curve].

For the compound `CCCCn1c(=NC(=O)c2cc3ccccc3o2)c(C(=O)OCC)cc2c(=O)n3ccccc3nc21`, the AC50 under setting [1] is 20 µM [falling, partial curve].

Consider `CCCn1nc(NS(=O)(=O)c2ccccc2)c2cc3ccccc3nc21`, for which, under setting [1], the concentration at half-maximal activity (AC50) was 12.6 µM [falling, partial curve].

On to `COc1ccc(S(=O)(=O)N2CCSC2c2ccc(OC)c(OC)c2)cc1` (configuration not stated), for which the AC50 under setting [1] was 39.8 µM [falling, single point].

As for `CCOC(=O)c1ccccc1NC(=O)CSc1nc2c(c(=O)n(C)c(=O)n2C)n1C`, the AC50 under setting [1] was 39.8 µM [rising, single point] [measured here: IkB-luc green channel].

Regarding `CC1CCN(S(=O)(=O)c2nnc(NC(=O)c3cccc(Br)c3)s2)CC1`, the AC50 under setting [1] is 3.98 µM [rising, single point].

As for `Cc1ccc(NC(=O)Cn2c(=O)n(CCC(=O)NCc3ccccc3Cl)c(=O)c3ccccc32)cc1`, the AC50 under setting [1] was 0.0158 µM [rising, full curve, poor fit].

For the compound `O=c1c(-c2cccs2)nc2cnc(Nc3ccccc3)nc2n1C[C@H]1CCCO1`, the AC50 under setting [1] was 3.98 µM [falling, single point] [measured here: IkB-luc green channel].

For the compound `CN(c1ccc(OCc2nnc(-c3ccccc3)o2)cc1)S(=O)(=O)c1ccccc1`, the AC50 under setting [1] is 25.1 µM [falling, partial curve].

Regarding `COc1ccc(CCn2c(C)cc(C(=O)CSc3nnc(N)s3)c2C)cc1`, under setting [1], the AC50 is 25.1 µM [falling, partial curve].

Take `O=C(Nc1ccc(F)c(Cl)c1)C1CCCN(c2cnccn2)C1` (configuration not stated): the half-maximal activity concentration (AC50) under setting [1] is 39.8 µM [falling, single point].

Turning to `COc1ccc(CC2C(=O)Nc3ccc(Br)cc32)cc1OC` (configuration not stated), under setting [1], the AC50 is 2 µM [falling, partial curve].

In the case of `COc1ccc(S(=O)(=O)NCC(c2ccco2)N2CCN(c3ccc(F)cc3)CC2)cc1C` (configuration not stated), the AC50 under setting [1] is 12.6 µM [falling, partial curve].

Turning to `CC(=O)N1CCCC1c1nc2ccccc2n1Cc1ccccc1C` (configuration not stated), the AC50 under setting [1] was 7.94 µM [falling, full curve].

As for `CCc1ccc(NC(=O)CC2C(=O)N(c3cccc(C)c3)C(=O)N2Cc2ccco2)cc1` (configuration not stated), under setting [1], the AC50 was 31.6 µM [falling, single point].

Turning to `COc1ccc(-c2cc(C(=O)N3CCc4ccccc4C3)no2)cc1OC`, the AC50 under setting [1] was 15.8 µM [falling, partial curve].

As to `c1ccc(-c2nc3nc4ccccc4nc3n2Cc2ccco2)cc1`, the AC50 under setting [1] is 20 µM [falling, partial curve].

In the case of `CC1CCN(S(=O)(=O)c2ccc3c(ccn3CCC(=O)NCc3ccc(N(C)C)cc3)c2)CC1`, the AC50 under setting [1] was 31.6 µM [falling, partial curve].

Broadly, the AC50 is the midpoint of the concentration-response curve, whichever way the signal moves.

The record behind these values is PubChem BioAssay AID445 (National Center for Advancing Translational Sciences (NCATS), 2006).
